Source: PMC4770718
Results are given in words; binding and its absence hold for the method and conditions named. In cells and extracts the contact can be indirect. Some entries that bind do so weakly or less than the wild type. Tags and fused reporters may be left off the sequences shown.

The chains behind the UniProt entries cited, without tags or fusion partners. Residues count along the entry.
UniProt Q9QUN7, residues 25-784: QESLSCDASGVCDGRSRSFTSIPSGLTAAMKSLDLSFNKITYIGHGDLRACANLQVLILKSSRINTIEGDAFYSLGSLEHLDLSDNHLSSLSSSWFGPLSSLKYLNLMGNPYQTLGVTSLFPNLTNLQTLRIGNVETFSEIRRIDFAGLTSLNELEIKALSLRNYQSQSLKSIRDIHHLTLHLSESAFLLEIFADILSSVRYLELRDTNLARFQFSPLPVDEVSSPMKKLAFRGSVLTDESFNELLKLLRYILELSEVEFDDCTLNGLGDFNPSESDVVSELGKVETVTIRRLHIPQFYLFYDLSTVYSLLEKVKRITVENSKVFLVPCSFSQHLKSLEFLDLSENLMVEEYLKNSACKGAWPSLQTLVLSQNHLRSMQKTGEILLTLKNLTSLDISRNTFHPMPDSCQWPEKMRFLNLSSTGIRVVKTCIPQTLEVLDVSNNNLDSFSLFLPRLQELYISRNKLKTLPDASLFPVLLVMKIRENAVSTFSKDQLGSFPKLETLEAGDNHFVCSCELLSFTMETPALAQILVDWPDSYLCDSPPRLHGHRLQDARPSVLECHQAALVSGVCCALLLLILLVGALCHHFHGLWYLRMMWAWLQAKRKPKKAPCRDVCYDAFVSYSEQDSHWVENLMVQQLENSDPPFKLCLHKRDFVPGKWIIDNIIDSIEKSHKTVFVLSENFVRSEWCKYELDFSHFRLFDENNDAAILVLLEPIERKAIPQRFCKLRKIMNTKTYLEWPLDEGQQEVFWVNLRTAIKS
UniProt Q9QUK6, residues 26-835: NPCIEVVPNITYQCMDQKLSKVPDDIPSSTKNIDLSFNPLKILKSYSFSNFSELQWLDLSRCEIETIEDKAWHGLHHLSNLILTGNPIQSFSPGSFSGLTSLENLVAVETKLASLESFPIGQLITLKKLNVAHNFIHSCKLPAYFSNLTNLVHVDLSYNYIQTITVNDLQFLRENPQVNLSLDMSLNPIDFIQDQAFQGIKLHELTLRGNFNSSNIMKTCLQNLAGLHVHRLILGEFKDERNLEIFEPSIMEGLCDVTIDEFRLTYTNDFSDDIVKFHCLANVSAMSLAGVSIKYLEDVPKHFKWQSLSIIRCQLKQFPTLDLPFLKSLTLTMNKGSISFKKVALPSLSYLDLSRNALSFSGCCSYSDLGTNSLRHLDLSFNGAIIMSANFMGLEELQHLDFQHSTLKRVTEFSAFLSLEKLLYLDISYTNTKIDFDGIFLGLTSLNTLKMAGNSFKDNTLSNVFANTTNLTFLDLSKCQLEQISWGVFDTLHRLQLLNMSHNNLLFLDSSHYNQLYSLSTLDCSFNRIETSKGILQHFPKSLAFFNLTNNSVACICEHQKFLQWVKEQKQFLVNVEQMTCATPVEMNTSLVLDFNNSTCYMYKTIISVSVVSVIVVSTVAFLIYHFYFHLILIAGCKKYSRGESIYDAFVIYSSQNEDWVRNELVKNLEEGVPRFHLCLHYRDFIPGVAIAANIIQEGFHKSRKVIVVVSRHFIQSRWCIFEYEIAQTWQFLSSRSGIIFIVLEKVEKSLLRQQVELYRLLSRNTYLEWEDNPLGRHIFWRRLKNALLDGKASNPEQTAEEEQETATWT

Columns and labels:
[1] = target: Toll-like receptor 2 (mouse) (mouse (endogenous in macrophages of C57BL/6 mice)) (UniProt Q9QUN7); test: co-IP; mouse macrophages treated with PPE26 (10 μg/ml) for 6 h, lysed in RIPA buffer; lysates immunoprecipitated with anti-His (methods: anti-PPE26), anti-TLR2 or anti-TLR4 and control IgG; blots with anti-His, anti-TLR2, anti-TLR4; only the binder purified
[2] = target: Toll-like receptor 4 (mouse) (mouse (endogenous in macrophages of C57BL/6 mice)) (UniProt Q9QUK6); test: as above

B1: Recombinant PPE26 (Rv1789) of M. tuberculosis H37Rv, His-tagged (protein, UniProt Q79FK6 1-393)
chain: MDFGALPPEVNSVRMYAGPGSAPMVAAASAWNGLAAELSSAATGYETVITQLSSEGWLGPASAAMAEAVAPYVAWMSAAAAQAEQAATQARAAAAAFEAAFAATVPPPLIAANRASLMQLISTNVFGQNTSAIAAAEAQYGEMWAQDSAAMYAYAGSSASASAVTPFSTPPQIANPTAQGTQAAAVATAAGTAQSTLTEMITGLPNALQSLTSPLLQSSNGPLSWLWQILFGTPNFPTSISALLTDLQPYASFFYNTEGLPYFSIGMGNNFIQSAKTLGLIGSAAPAAVAAAGDAAKGLPGLGGMLGGGPVAAGLGNAASVGKLSVPPVWSGPLPGSVTPGAAPLPVSTVSAAPEAAPGSLLGGLPLAGAGGAGAGPRYGFRPTVMARPPFAG
binding [1]: binds
binding [2]: no binding (tested: 10μg/ml)
